These are yes or no findings as the source states them, for the method shown. Binding seen in cells or lysates may run through a third protein. For some assays here: Binding can be weak; no strength is given.
Legend:
[1] = target: Brg1/Brm-associated factor 155 (Baf155)-His (UniProt P97496); assay: co-IP; C2C12 cells co-transfected with His-tagged Baf155 constructs and STAT3 constructs; lysates (Pierce Co-IP lysis buffer, sonication) precipitated with Ni-NTA agarose overnight at 4°C; washed 6 times with 20 mM Tris, 150 mM NaCl, 20 mM imidazole pH 8.0; western blot
[2] = target: Baf155 without coiled-coil domain (Baf155^ΔCCD)-His (UniProt P97496); assay: as above

Sequences of proteins named here, by UniProt entry; tags and fusion partners are left off. A change or cut given only in a name is not applied to a line headed by its entry.
UniProt P97496: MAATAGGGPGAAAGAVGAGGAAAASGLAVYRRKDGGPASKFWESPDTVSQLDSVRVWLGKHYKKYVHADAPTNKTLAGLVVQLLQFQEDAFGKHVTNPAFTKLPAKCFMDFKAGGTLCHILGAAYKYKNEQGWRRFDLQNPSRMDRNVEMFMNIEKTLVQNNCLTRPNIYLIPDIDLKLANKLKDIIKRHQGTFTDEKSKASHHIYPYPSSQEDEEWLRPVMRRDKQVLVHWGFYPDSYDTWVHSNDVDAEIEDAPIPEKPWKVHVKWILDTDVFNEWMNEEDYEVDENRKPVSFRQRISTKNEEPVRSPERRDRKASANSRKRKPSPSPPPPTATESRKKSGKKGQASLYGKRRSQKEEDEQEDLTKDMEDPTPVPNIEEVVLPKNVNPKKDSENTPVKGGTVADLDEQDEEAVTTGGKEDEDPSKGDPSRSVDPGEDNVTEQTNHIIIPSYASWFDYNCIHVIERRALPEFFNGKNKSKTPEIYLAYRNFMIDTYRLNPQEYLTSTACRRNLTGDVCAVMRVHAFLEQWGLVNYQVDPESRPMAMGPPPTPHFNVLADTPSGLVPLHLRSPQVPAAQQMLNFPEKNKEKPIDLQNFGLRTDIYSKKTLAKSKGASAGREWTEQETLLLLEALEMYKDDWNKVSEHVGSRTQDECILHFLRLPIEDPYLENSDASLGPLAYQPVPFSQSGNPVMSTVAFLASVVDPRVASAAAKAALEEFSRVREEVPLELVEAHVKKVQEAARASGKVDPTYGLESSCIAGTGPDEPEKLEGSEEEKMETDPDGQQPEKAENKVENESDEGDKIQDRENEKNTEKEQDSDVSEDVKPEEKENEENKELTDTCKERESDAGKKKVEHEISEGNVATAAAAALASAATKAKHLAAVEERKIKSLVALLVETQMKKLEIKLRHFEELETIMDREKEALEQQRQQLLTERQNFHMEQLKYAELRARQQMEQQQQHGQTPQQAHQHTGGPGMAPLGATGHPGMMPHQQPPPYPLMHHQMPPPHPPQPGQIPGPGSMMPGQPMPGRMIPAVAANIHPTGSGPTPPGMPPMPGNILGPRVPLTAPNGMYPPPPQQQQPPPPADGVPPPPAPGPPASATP
UniProt P42227: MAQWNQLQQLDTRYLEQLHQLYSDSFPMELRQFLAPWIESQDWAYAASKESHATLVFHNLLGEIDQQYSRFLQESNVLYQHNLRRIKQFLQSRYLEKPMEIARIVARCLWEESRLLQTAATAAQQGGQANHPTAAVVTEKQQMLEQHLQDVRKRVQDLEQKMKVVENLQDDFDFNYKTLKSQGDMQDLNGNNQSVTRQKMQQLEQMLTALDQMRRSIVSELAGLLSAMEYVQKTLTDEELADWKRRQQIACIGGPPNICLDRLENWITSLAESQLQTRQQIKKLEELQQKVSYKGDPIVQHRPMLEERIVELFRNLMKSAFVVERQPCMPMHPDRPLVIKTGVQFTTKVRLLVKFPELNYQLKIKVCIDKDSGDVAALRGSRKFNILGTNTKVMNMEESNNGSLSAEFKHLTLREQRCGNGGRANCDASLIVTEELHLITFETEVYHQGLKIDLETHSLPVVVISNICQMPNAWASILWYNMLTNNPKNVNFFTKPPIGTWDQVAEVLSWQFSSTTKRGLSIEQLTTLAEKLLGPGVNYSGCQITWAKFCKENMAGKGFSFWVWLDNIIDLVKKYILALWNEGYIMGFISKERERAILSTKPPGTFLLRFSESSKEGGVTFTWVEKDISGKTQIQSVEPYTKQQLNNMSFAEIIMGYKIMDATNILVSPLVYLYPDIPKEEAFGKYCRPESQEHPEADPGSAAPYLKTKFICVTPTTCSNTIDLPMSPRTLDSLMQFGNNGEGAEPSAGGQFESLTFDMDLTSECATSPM

binding [1]	binding [2]	Substance
no binding		STAT3 without coiled-coil domain (STAT3^ΔCCD) (from UniProt P42227)
	binds	signal transducer and activator of transcription 3 (STAT3)-Flag (from UniProt P42227 1-770)

From publication PMC10396025
